Some of the results follow.
Columns and labels:
Assay in all cases: glycan array binding signal (z-score within array); higher = stronger binding
Conditions in all cases: glycan notation: IUPAC condensed, linker removed
Gal(a1-3)Gal(b1-4)GlcNAc = target: Gal(a1-3)Gal(b1-4)GlcNAc
How it was run: (§1)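 Glycan array binding is given as a within-array Z-score, which can be read as non-binding when negative. The arrays, 3228 of them, came from the Consortium for Functional Glycomics database and were retained only where the protein sequence was available. Z-scores were averaged across arrays of the same protein sequence at different concentrations or buffers and across linkers.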

[1] = target: Gal(a1-3)Gal(b1-4)GlcNAc(b1-2)Man
How it was run: as §1

[2] = target: Gal(a1-3)Gal(b1-4)GlcNAc(b1-2)Man(a1-3)[Gal(a1-3)Gal(b1-4)GlcNAc(b1-2)Man(a1-6)]Man(b1-4)GlcNAc(b1-4)GlcNAc
How it was run: as §1

[3] = target: Gal(a1-3)Gal(b1-4)GlcNAc(b1-3)GalNAc
How it was run: as §1

[4] = target: Gal(a1-3)Gal(b1-4)GlcNAc(b1-6)GalNAc
How it was run: as §1

[5] = target: Gal(a1-3)Gal(b1-4)[Fuc(a1-3)]GlcNAc
How it was run: as §1

[6] = target: Gal(a1-3)Gal(b1-4)[Fuc(a1-3)]GlcNAc(b1-2)Man(a1-3)[Gal(a1-3)Gal(b1-4)[Fuc(a1-3)]GlcNAc(b1-2)Man(a1-6)]Man(b1-4)GlcNAc(b1-4)GlcNAc
How it was run: as §1

Gal(a1-3)GalNAc = target: Gal(a1-3)GalNAc
How it was run: as §1

[7] = target: Gal(a1-3)[Gal(a1-4)]Gal(b1-4)GlcNAc
How it was run: as §1

[8] = target: Gal(a1-4)Gal(b1-3)GlcNAc(b1-2)Man(a1-3)[Gal(a1-4)Gal(b1-3)GlcNAc(b1-2)Man(a1-6)]Man(b1-4)GlcNAc(b1-4)GlcNAc
How it was run: as §1

Gal(a1-4)Gal(b1-4)Glc = target: Gal(a1-4)Gal(b1-4)Glc
How it was run: as §1

Gal(a1-4)Gal(b1-4)GlcNAc = target: Gal(a1-4)Gal(b1-4)GlcNAc
How it was run: as §1

[9] = target: Gal(a1-4)Gal(b1-4)GlcNAc(b1-2)Man(a1-3)[Gal(a1-4)Gal(b1-4)GlcNAc(b1-2)Man(a1-6)]Man(b1-4)GlcNAc(b1-4)GlcNAc
How it was run: as §1

[10] = target: Gal(a1-4)Gal(b1-4)GlcNAc(b1-3)Gal(b1-4)Glc
How it was run: as §1

Gal(a1-4)GlcNAc = target: Gal(a1-4)GlcNAc
How it was run: as §1

Gal(a1-6)Glc = target: Gal(a1-6)Glc
How it was run: as §1

Gal(b1-2)Gal = target: Gal(b1-2)Gal
How it was run: as §1

Gal(b1-3)Gal = target: Gal(b1-3)Gal
How it was run: as §1

Gal(b1-3)Gal(b1-4)GlcNAc = target: Gal(b1-3)Gal(b1-4)GlcNAc
How it was run: as §1

Gal(b1-3)GalNAc = target: Gal(b1-3)GalNAc
How it was run: as §1

[11] = target: Gal(b1-3)GalNAc(a1-3)[Fuc(a1-2)]Gal(b1-4)Glc
How it was run: as §1

[12] = target: Gal(b1-3)GalNAc(a1-3)[Fuc(a1-2)]Gal(b1-4)GlcNAc
How it was run: as §1

Gal(b1-3)GalNAc(b1-3)Gal = target: Gal(b1-3)GalNAc(b1-3)Gal
How it was run: as §1

[13] = target: Gal(b1-3)GalNAc(b1-3)Gal(a1-4)Gal(b1-4)Glc
How it was run: as §1

[14] = target: Gal(b1-3)GalNAc(b1-4)Gal(b1-4)Glc
How it was run: as §1

[15] = target: Gal(b1-3)GalNAc(b1-4)[Neu5Ac(a2-3)]Gal(b1-4)Glc
How it was run: as §1

Gal(b1-3)GlcNAc = target: Gal(b1-3)GlcNAc
How it was run: as §1

[16] = target: Gal(b1-3)GlcNAc(a1-3)Gal(b1-4)GlcNAc
How it was run: as §1

[17] = target: Gal(b1-3)GlcNAc(a1-6)Gal(b1-4)GlcNAc
How it was run: as §1

Gal(b1-3)GlcNAc(b1-2)Man = target: Gal(b1-3)GlcNAc(b1-2)Man
How it was run: as §1

[18] = target: Gal(b1-3)GlcNAc(b1-2)Man(a1-3)[Gal(b1-3)GlcNAc(b1-2)Man(a1-6)]Man(b1-4)GlcNAc(b1-4)GlcNAc
How it was run: as §1

[19] = target: Gal(b1-3)GlcNAc(b1-2)Man(a1-3)[Gal(b1-3)GlcNAc(b1-2)Man(a1-6)]Man(b1-4)GlcNAc(b1-4)[Fuc(a1-6)]GlcNAc
How it was run: as §1

[20] = target: Gal(b1-3)GlcNAc(b1-2)Man(a1-3)[GlcNAc(b1-4)][Gal(b1-3)GlcNAc(b1-2)Man(a1-6)]Man(b1-4)GlcNAc(b1-4)GlcNAc
How it was run: as §1

[21] = target: Gal(b1-3)GlcNAc(b1-2)[Gal(b1-3)GlcNAc(b1-6)]Man(a1-6)[Gal(b1-3)GlcNAc(b1-2)Man(a1-3)]Man(b1-4)GlcNAc(b1-4)GlcNAc
How it was run: as §1

[22] = target: Gal(b1-3)GlcNAc(b1-3)Gal(b1-3)GlcNAc
How it was run: as §1

[23] = target: Gal(b1-3)GlcNAc(b1-3)Gal(b1-4)Glc
How it was run: as §1

[24] = target: Gal(b1-3)GlcNAc(b1-3)Gal(b1-4)GlcNAc
How it was run: as §1

[25] = target: Gal(b1-3)GlcNAc(b1-3)Gal(b1-4)GlcNAc(b1-2)Man(a1-3)[Gal(b1-3)GlcNAc(b1-3)Gal(b1-4)GlcNAc(b1-2)Man(a1-6)]Man(b1-4)GlcNAc(b1-4)GlcNAc
How it was run: as §1

[26] = target: Gal(b1-3)GlcNAc(b1-3)Gal(b1-4)GlcNAc(b1-2)[Gal(b1-3)GlcNAc(b1-3)Gal(b1-4)GlcNAc(b1-6)]Man(a1-6)[Gal(b1-3)GlcNAc(b1-3)Gal(b1-4)GlcNAc(b1-2)Man(a1-3)]Man(b1-4)GlcNAc(b1-4)[Fuc(a1-6)]GlcNAc
How it was run: as §1

[27] = target: Gal(b1-3)GlcNAc(b1-3)Gal(b1-4)GlcNAc(b1-3)Gal(b1-4)GlcNAc(b1-2)[Gal(b1-3)GlcNAc(b1-3)Gal(b1-4)GlcNAc(b1-3)Gal(b1-4)GlcNAc(b1-6)]Man(a1-6)[Gal(b1-3)GlcNAc(b1-3)Gal(b1-4)GlcNAc(b1-3)Gal(b1-4)GlcNAc(b1-2)Man(a1-3)]Man(b1-4)GlcNAc(b1-4)[Fuc(a1-6)]GlcNAc
How it was run: as §1

[28] = target: Gal(b1-3)GlcNAc(b1-3)Gal(b1-4)GlcNAc(b1-6)[Gal(b1-3)GlcNAc(b1-3)]Gal(b1-4)Glc
How it was run: as §1

[29] = target: Gal(b1-3)GlcNAc(b1-3)Gal(b1-4)[Fuc(a1-3)]GlcNAc
How it was run: as §1

[30] = target: Gal(b1-3)GlcNAc(b1-3)Gal(b1-4)[Fuc(a1-3)]GlcNAc(b1-6)[Gal(b1-3)GlcNAc(b1-3)]Gal(b1-4)Glc
How it was run: as §1

[31] = target: Gal(b1-3)GlcNAc(b1-3)GalNAc
How it was run: as §1

[32] = target: Gal(b1-3)GlcNAc(b1-6)Gal(b1-4)GlcNAc
How it was run: as §1

B1: pTFF2 (Sus scrofa), P01359 (protein)
chain: KPAACRCSRQDPKNRVNCGFPGITSDQCFTSGCCFDSQVPGVPWCFKPLPAQESEECVMEVSARKNCGYPGISPEDCAARNCCFSDTIPEVPWCFFPMSVEACHY
glycan array binding signal (z-score) (Gal(a1-3)Gal(b1-4)GlcNAc): -0.198 | glycan array binding signal (z-score) [1]: -0.421 | glycan array binding signal (z-score) [2]: -0.027 | glycan array binding signal (z-score) [3]: 0.196 | glycan array binding signal (z-score) [4]: 0.352 | glycan array binding signal (z-score) [5]: 0.264 | glycan array binding signal (z-score) [6]: -0.415 | glycan array binding signal (z-score) (Gal(a1-3)GalNAc): 0.635 | glycan array binding signal (z-score) [7]: -0.421 | glycan array binding signal (z-score) [8]: -0.292 | glycan array binding signal (z-score) (Gal(a1-4)Gal(b1-4)Glc): 1.71 | glycan array binding signal (z-score) (Gal(a1-4)Gal(b1-4)GlcNAc): 0.805 | glycan array binding signal (z-score) [9]: 2.45 | glycan array binding signal (z-score) [10]: 1.02 | glycan array binding signal (z-score) (Gal(a1-4)GlcNAc): -1.17 | glycan array binding signal (z-score) (Gal(a1-6)Glc): -1.95 | glycan array binding signal (z-score) (Gal(b1-2)Gal): -1.31 | glycan array binding signal (z-score) (Gal(b1-3)Gal): -0.193 | glycan array binding signal (z-score) (Gal(b1-3)Gal(b1-4)GlcNAc): 0.68 | glycan array binding signal (z-score) (Gal(b1-3)GalNAc): 0.145 | glycan array binding signal (z-score) [11]: -0.167 | glycan array binding signal (z-score) [12]: -1.16 | glycan array binding signal (z-score) (Gal(b1-3)GalNAc(b1-3)Gal): 2.98 | glycan array binding signal (z-score) [13]: -1.04 | glycan array binding signal (z-score) [14]: 0.589 | glycan array binding signal (z-score) [15]: 2.82 | glycan array binding signal (z-score) (Gal(b1-3)GlcNAc): -1.55 | glycan array binding signal (z-score) [16]: -0.446 | glycan array binding signal (z-score) [17]: 0.028 | glycan array binding signal (z-score) (Gal(b1-3)GlcNAc(b1-2)Man): 0.212 | glycan array binding signal (z-score) [18]: 0.415 | glycan array binding signal (z-score) [19]: 0.503 | glycan array binding signal (z-score) [20]: -0.675 | glycan array binding signal (z-score) [21]: 0.458 | glycan array binding signal (z-score) [22]: -0.517 | glycan array binding signal (z-score) [23]: -0.393 | glycan array binding signal (z-score) [24]: -0.738 | glycan array binding signal (z-score) [25]: -0.672 | glycan array binding signal (z-score) [26]: -0.456 | glycan array binding signal (z-score) [27]: 0.066 | glycan array binding signal (z-score) [28]: 0.211 | glycan array binding signal (z-score) [29]: -1.04 | glycan array binding signal (z-score) [30]: 0.457 | glycan array binding signal (z-score) [31]: -1.12 | glycan array binding signal (z-score) [32]: -1.61
